# Measurements reported in PubChem BioAssay AID493014 (National Center for Advancing Translational Sciences (NCATS), 2011).
# This is one part of the list. These are further read-outs of the screen, such as a control signal, another cell line or another target. No call is given for them. Most of these compounds were active or inconclusive in the main read-out, so they are no random draw. Words in brackets tell the shape of the fitted curve; partial curves, single points and poor fits give uncertain potencies.
# Experiment: qHTS Assay to Find Inhibitors of Chronic Active B-Cell Receptor Signaling
# Details: ABC-DLBCL IkBa-CBG/CBR reporter, luminescence ratio (green luciferase fused to IkBa over red control in TMD8 lymphoma cells), 4 h
# In short: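 Doxycycline induced both beetle luciferases in TMD8 lymphoma cells; IKK-driven degradation limits the IkappaBalpha-fused green signal, while red luminescence normalises for cell number and nonspecific effects. Compounds tested up to 46 uM, 4 hrs.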
# [1] = measured here: CBR red luminescence, cell number
# [2] = measured here: IkBa-CBG green luminescence
SMILES,AC50 [1],AC50 [2]
CCCCNc1c(-c2cccc(-c3ccc(OC)cc3)c2)nc2cc(C)ccn12,"29.1 µM [falling, single point]",
Cc1ccccc1NC(=O)c1nc(S(C)(=O)=O)ncc1Cl,"20 µM [falling, single point]","11.2 µM [rising, partial curve, poor fit]"
O=c1nc(C(F)(F)F)nc2ccccn12,"29.1 µM [falling, single point]",
COc1ccc(S(=O)(=O)N(Cc2cc3cc(C)ccc3[nH]c2=O)CC2CCCO2)cc1 (centres undefined),"1.64 µM [rising, partial curve, poor fit]",
Cc1cccc(/C(N)=N/OC(=O)N2CCOCC2)c1,,"25.1 µM [falling, partial curve, poor fit]"
CC(C)c1ccccc1NC(=O)COC(=O)CCN1C(=O)/C(=C\C=C\c2ccccc2)SC1=S,"0.0651 µM [falling, full curve]",
CC(=O)c1c(C)nc2ccc(Cl)cn12,"3.26 µM [falling, single point]",
O=C(COc1ccc2c3c(c(=O)oc2c1)CCC3)NCc1ccccn1,"35.5 µM [rising, single point]",
COc1cccc(NC(=O)C2CCC(CNS(=O)(=O)c3ccc4c(c3)CC(C)N4C(C)=O)CC2)c1 (centres undefined),"35.5 µM [falling, partial curve, poor fit]",
Cc1cc(C)n2nc(CNS(=O)(=O)c3c(F)c(F)c(F)c(F)c3F)nc2n1,"35.5 µM [falling, single point]",
O=C(Cc1ccccc1)c1c[nH]c(C(=O)O)c1,"10 µM [falling, partial curve, poor fit]",
COc1cc(OC)cc(-c2c(C#Cc3ccsc3)c3cc(Br)ccc3n2C)c1,"4.11 µM [falling, full curve]",
Cc1nc(SC2CC(=O)N(c3ccccc3)C2=O)n[nH]1 (centres undefined),"15.8 µM [falling, single point]",
Cc1cccc([N+](=O)[O-])c1NC(=O)CSc1nnc2ccccn12,"6.51 µM [falling, partial curve, poor fit]",
Cn1c(CCN2CCN(c3ccccn3)CC2)nc2cc(NC(=O)COc3ccccc3)ccc21,"11.2 µM [falling, single point]",
O=C(O)c1ccc(N2C(=O)Nc3ccccc3N2O)cc1,"35.5 µM [falling, single point]",
O=C(Nc1ccccc1N1CCN(c2ccc(F)cc2)CC1)c1ccccc1,"1.3 µM [rising, full curve]",
COc1ccc(OCCn2cnc(Cl)c2Cl)cc1,"14.1 µM [rising, partial curve, poor fit]",
CS(=O)(=O)c1ccc2nc(NC(=O)c3cccc(Cl)c3)sc2c1,"2.82 µM [falling, partial curve]",
Nc1cc(N)nc(SCCc2ccccc2)n1,"35.5 µM [falling, single point]",

SMILES,AC50 [1],AC50 [2]
O=C1C(Cc2ccccc2)NC(=S)N1c1ccccc1 (centres undefined),"31.6 µM [falling, single point]",
COc1ccc(-c2noc(Cc3ccc(Cl)cc3)n2)cc1OC,"29.1 µM [rising, single point]",
CC1(C)N=c2ccc([N+](=O)[O-])c(N)c2=[N+]1[O-],"11.2 µM [rising, partial curve]","35.5 µM [falling, partial curve, poor fit]"
CC(=O)N1CCc2c(sc(NC(=O)C3CCN(S(=O)(=O)c4cccs4)CC3)c2C(N)=O)C1,"14.6 µM [rising, partial curve, poor fit]","23.1 µM [falling, partial curve, poor fit]"
Cc1nc([N+](=O)[O-])c(Br)n1Cc1ccc(Cl)c(Cl)c1,"22.4 µM [falling, single point]","3.55 µM [rising, partial curve, poor fit]"
Cc1ccccc1-c1nc(-c2ccc(Br)o2)no1,"3.16 µM [rising, single point]",
Cc1ccc(NC(=O)c2cc([N+](=O)[O-])ccc2N2CCOCC2)cc1C,"15.8 µM [falling, single point]",
Cc1cnnn1-c1ccc([N+](=O)[O-])cc1,"17.8 µM [rising, partial curve, poor fit]",
O=C(CN1CCN(CC(=O)Nc2ccccc2F)CC1)Nc1ccc2c(c1)OCCO2,"17.8 µM [falling, single point]",
CN(CC(=O)Nc1nc2ccccc2s1)S(=O)(=O)c1ccccc1,"5.17 µM [falling, full curve]",
COc1cc(C2C(C#N)=C(N)OC3=C2C(=O)CCC3)ccc1OC(=O)N1CCOCC1 (centres undefined),"7.31 µM [rising, partial curve, poor fit]",
O=S(=O)(NC1CCCCC1N1CCN(c2cccc(Cl)c2)CC1)c1ccccc1 (centres undefined),"0.631 µM [falling, partial curve, poor fit]",
Cn1cc([N+](=O)[O-])c(C(=O)Nc2cc(Oc3ccccc3)cc([N+](=O)[O-])c2)n1,"5.17 µM [falling, full curve]",
COC(=O)c1sccc1NC(=O)Nc1cccc(C(C)=O)c1,"35.5 µM [falling, single point]",
Cc1ccc(S(=O)(=O)N(CC(=O)NCC2CCCO2)C2CCCCC2)cc1 (centres undefined),"2.82 µM [rising, full curve, poor fit]",
N#Cc1c(N)nc2c(c1-c1ccc(F)cc1)CCC2,"35.5 µM [falling, single point]","3.55 µM [rising, full curve, poor fit]"
O=C1OC(c2ccccc2)=C/C1=C/c1cccs1,"20 µM [falling, single point]",
CCOC(=O)C1(CC2CC2)CCN(C(=O)c2cc(OC)nc3ccccc23)CC1,"2 µM [rising, partial curve]",
Cc1ccc(-c2sc(-c3ccccc3)nc2CC(=O)Nc2ccccc2F)cc1,"0.0103 µM [rising, full curve, poor fit]",

# Random excerpt: 2 entries already listed
SMILES,AC50 [1],AC50 [2]
CC1(C)N=c2ccc([N+](=O)[O-])c(N)c2=[N+]1[O-],"11.2 µM [rising, partial curve]","35.5 µM [falling, partial curve, poor fit]"
O=C1C(Cc2ccccc2)NC(=S)N1c1ccccc1 (centres undefined),"31.6 µM [falling, single point]",
